From PMC10401909 come the findings set out here.

By UniProt entry, the sequences of proteins in these tests, tags left out.
UniProt O88597: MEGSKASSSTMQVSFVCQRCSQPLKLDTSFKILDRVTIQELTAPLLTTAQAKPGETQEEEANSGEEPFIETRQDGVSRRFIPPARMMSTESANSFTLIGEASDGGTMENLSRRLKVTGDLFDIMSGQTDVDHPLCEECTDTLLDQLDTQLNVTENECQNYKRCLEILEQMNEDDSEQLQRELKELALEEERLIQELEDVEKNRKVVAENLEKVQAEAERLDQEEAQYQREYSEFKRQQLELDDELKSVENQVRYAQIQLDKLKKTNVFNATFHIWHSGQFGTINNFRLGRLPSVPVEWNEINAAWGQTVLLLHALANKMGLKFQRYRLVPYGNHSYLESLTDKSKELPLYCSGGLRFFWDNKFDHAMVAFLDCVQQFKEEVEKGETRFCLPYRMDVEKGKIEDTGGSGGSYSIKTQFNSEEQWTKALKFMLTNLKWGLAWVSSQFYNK
UniProt Q6PF93: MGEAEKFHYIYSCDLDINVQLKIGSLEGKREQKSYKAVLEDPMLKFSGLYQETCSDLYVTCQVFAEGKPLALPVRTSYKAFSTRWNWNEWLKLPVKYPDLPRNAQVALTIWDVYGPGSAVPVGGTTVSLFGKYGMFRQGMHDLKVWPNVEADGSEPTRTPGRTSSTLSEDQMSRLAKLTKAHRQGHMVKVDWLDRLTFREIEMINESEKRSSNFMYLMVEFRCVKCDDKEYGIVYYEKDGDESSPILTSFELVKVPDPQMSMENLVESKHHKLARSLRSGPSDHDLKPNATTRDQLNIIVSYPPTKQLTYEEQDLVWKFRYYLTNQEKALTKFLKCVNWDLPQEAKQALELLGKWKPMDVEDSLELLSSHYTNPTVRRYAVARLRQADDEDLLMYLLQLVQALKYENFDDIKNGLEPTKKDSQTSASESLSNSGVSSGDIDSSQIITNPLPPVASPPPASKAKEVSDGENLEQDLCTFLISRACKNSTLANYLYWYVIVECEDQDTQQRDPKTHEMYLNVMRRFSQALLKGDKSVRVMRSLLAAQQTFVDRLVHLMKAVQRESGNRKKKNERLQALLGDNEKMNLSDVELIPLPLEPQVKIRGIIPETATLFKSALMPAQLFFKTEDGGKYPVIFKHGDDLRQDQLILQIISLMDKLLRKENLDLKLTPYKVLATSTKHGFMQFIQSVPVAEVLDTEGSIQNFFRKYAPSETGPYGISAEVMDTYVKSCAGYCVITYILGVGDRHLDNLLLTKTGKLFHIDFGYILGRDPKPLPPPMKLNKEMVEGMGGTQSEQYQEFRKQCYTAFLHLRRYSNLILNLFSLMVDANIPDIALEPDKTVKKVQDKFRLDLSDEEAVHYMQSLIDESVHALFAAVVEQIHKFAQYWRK

No constants are given. Whether binding was seen depends on the method and setting. In cells and extracts the contact can be indirect. Some binding calls cover weakened binding; strength is not graded here.

The target in this experiment is Beclin-1 (mouse (endogenous in CT-26)) (UniProt O88597). As to the kind of experiment: co-IP; cells lysed in RIPA buffer at 4°C, pre-cleared with protein sepharose; specific antibodies or irrelevant immunoglobulin with protein sepharose beads; washed three times with RIPA buffer; SDS-PAGE and western blot; CT-26 and HCT-116 cells treated with naphplatin or cisplatin (10 μM), with or without ethyl pyruvate (EP, 10 mM, 2 h). On the technique in general: Immunoblotting shows a protein as a band on a membrane.

In the case of PI3K-III (from UniProt Q6PF93 1-887), the binding entry is given as “binds”.
